No constants are given. Whether binding was seen depends on the method and setting. In cells and extracts the contact can be indirect. These calls come from enrichment with a bait or labelling near it, and not all partners need be listed. For part of these data: A no says only that the protein was not detected with the bait.
What was measured:
[1] = molecular target: NRPE1-FLAG (largest subunit of nuclear RNA polymerase V) (Arabidopsis thaliana) (UniProt Q5D869); assay: affinity purification with mass spectrometry; anti-FLAG M2 beads (non-methylated, Control 1 and 2, or dimethylated) in lysate of 14-day NRPE1-FLAG transgenic Arabidopsis seedlings, 4 °C, 3 h; on-bead digestion by trypsin, or by Lys-C and then trypsin; LC MS/MS; three biological repeats
[2] = molecular target: NRPE1-FLAG (Arabidopsis thaliana) (UniProt Q5D869); assay: affinity purification with mass spectrometry; dimethylated anti-FLAG antibody purification with forward and reciprocal 14N/15N metabolic labelling of Col-0 wild-type and NRPE1-FLAG transgenic seedlings; H/L ratios by LC MS/MS to tell specific from non-specific proteins
[3] = molecular target: NRPE1-FLAG (Arabidopsis thaliana) (UniProt Q5D869); assay: affinity purification with mass spectrometry; anti-FLAG M2 beads (lysines dimethylated, or non-methylated as controls 1 and 2) incubated 3 h at 4 °C with lysate of 14-day NRPE1-FLAG transgenic Arabidopsis seedlings (50 mM Tris-HCl pH 7.5, 150 mM NaCl, 5 mM MgCl2, 10% glycerol, 0.1% NP-40); on-bead digestion with Lys-C then trypsin; Orbitrap LC MS/MS

Protein sequences, listed by entry. Tags and fused reporters are not part of them.
UniProt Q5D869: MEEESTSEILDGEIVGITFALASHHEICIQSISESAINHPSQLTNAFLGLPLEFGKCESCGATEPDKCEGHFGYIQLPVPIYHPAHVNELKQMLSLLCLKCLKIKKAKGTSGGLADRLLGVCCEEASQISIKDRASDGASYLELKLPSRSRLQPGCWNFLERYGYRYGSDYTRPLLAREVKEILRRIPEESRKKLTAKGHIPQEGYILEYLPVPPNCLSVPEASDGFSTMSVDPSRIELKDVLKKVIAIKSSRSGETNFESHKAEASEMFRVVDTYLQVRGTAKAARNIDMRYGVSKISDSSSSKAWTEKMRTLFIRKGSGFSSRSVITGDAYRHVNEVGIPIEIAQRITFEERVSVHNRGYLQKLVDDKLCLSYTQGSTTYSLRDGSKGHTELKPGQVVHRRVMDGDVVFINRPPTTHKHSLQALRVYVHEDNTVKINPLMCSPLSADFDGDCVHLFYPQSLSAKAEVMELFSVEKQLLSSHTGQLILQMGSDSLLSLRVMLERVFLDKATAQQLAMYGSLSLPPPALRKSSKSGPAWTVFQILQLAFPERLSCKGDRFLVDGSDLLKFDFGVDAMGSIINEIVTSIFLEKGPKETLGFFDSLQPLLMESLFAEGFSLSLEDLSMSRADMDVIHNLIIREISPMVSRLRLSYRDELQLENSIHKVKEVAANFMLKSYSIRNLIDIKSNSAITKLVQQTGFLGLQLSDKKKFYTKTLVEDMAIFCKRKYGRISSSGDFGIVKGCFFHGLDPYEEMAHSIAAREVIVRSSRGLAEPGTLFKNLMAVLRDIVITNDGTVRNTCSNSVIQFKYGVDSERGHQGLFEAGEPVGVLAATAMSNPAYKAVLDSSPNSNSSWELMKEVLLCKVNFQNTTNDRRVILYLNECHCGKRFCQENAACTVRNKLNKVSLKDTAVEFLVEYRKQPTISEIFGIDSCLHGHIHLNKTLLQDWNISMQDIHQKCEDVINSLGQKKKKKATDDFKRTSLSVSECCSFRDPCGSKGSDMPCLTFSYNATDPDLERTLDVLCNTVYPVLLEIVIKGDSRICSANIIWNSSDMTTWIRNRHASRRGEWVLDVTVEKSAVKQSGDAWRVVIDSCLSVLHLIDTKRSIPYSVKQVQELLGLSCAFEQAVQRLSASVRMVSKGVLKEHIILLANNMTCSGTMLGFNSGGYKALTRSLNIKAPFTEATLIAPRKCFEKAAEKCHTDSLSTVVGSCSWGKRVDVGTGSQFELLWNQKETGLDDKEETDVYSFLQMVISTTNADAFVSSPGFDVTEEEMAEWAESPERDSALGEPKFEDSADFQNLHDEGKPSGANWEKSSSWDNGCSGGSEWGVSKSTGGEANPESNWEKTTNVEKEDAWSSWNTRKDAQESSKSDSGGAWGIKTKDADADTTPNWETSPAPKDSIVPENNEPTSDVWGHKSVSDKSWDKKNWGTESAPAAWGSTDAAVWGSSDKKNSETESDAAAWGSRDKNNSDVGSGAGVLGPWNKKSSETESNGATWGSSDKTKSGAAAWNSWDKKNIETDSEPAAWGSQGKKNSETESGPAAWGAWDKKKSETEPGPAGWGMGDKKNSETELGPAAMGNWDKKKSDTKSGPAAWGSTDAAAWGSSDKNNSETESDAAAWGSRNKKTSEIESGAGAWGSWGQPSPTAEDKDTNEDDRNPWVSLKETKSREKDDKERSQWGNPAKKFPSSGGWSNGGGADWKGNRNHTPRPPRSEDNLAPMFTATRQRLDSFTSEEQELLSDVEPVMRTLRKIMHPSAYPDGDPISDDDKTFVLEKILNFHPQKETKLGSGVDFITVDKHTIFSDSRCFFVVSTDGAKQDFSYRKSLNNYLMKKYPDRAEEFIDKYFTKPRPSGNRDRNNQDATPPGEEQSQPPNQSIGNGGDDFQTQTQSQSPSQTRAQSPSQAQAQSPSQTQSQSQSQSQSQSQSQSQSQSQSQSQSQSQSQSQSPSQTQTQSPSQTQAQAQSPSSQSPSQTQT

B1: NRPE8b (protein, UniProt Q9M1A8 1-146)
chain: MASNIIMFEDIFVVDKLDPDGKKFDKVTRVEARSHNLEMFMHLDVNTEVYPLAVGDKFTLAMAPTLNLDGTPDTGYFTPGAKKTLADKYEYIMHGKLYKISERDGKTPKAELYVSFGGLLMLLQGDPAHISHFELDQRLFLLMRKL
In the case of B1, the binding [1] is reported as “binds”.

B2: NRPE9a (protein, UniProt Q6NLH0 1-114)
chain: MSTMKFCRECNNILYPKEDKEQKILLYACRNCDHQEVADNSCVYRNEVHHSVSERTQILTDVASDPTLPRTKAVRCSKCQHREAVFFQATARGEEGMTLFFVCCNPNCGHRWRE
In the case of B2, the binding [1] is reported as “binds”.

B3: NRPE9b (protein, UniProt Q8L5V0 1-114)
chain: MSTMKFCRECNNILYPKEDKEQSILLYACRNCDHQEAADNNCVYRNEVHHSVSEQTQILSDVASDPTLPRTKAVRCAKCQHGEAVFFQATARGEEGMTLFFVCCNPNCSHRWRE
For B3, the binding [1] was “binds”.

B4: NRPE11 (protein, UniProt Q38859 1-116)
chain: MNAPERYERFVVPEGTKKVSYDRDTKIINAASFTVEREDHTIGNIVRMQLHRDENVLFAGYQLPHPLKYKIIVRIHTTSQSSPMQAYNQAINDLDKELDYLKNQFEAEVAKFSNQF
In the case of B4, the binding [1] is reported as “binds”.

B5: NRPE3b (protein, UniProt Q39212 1-319)
chain: MDGVTYQRFPTVKIRELKDDYAKFELRETDVSMANALRRVMISEVPTMAIHLVKIEVNSSVLNDEFIAQRLSLIPLTSERAMSMRFCQDCEDCNGDEHCEFCSVEFPLSAKCVTDQTLDVTSRDLYSADPTVTPVDFTSNSSTSDSSEHKGIIIAKLRRGQELKLKALARKGIGKDHAKWSPAATVTYMYEPDIIINEEMMNTLTDEEKIDLIESSPTKVFGIDPVTGQVVVVDPEAYTYDEEVIKKAEAMGKPGLIEIHPKHDSFVFTVESTGALKASQLVLNAIDILKQKLDAIRLSDNTVEADDQFGELGAHMREG
In the case of B5, the binding [1] is reported as “binds”.

B6: NRPE4 (protein, UniProt Q6DBA5 1-205)
chain: MSEKGGKGLKSSLKSKDGGKDGSSTKLKKGRKIHFDQRTPPANYKILNVSSDQQPFQSSAAKCGKSDKPTKSSKNSLHSFELKDLPENAECMMDCEAFQILDGIKGQLVGLSEDPSIKIPVSYDRALAYVESCVHYTNPQSVRKVLEPLKTYGISDGEMCVIANASSESVDEVLAFIPSLKTKKEVINQPLQDALEELSKLKKSE
In the case of B6, the binding [1] is reported as “binds”.

B7: NRPE7 (protein, UniProt A6QRA1 1-178)
chain: MFLKVQLPWNVMIPAENMDAKGLMLKRAILVELLEAFASKKATKELGYYVAVTTLDKIGEGKIREHTGEVLFPVMFSGMTFKIFKGEIIHGVVHKVLKHGVFMRCGPIENVYLSYTKMPDYKYIPGENPIFMNEKTSRIQVETTVRVVVIGIKWMEVEREFQALASLEGDYLGPLSEE
For B7, the binding [1] was “binds”.

B8: actin-related protein 7 (protein, UniProt Q8L4Y5 1-363)
chain: MEALVVDAGSKFLKAGAAIPDQSPAMIIPSQMKRMVDDGSSSADNPTTVFEDVTLDPIERGLIRDWDAMEDLLRYVVYTGLGWEEGNEGNILFTDPLCTPKAIREQLVQLMFETFNVSGFYASEQAVLSLYAVGRISGCTVDIGHGKIDIAPVLEGAVQHIASKRFELGGTELTKLFAQELGKTNPSMNLSMSDVEKLKEQYANCAEDEIAYKKTQNCEIEQHTLPDGQVISIGRERYSVGEALFQPSILGLEEHGIVEQLVRIISTVSSENHRQLLENTVLCGGTTSMTGFESRFQKEANLCSSAIRPTLVKPPEYMPENLGMYSAWVGGAILAKVVFPQNQHVTKADYDETGPSVVHRKCF
In the case of B8, the binding [2] is reported as “binds”.

B9: unknown protein AT1G13930 (protein, UniProt Q9XI93 1-155)
chain: MNFISDQVKKLSSSTPEEPDHNKPVEGTETATRPATNAELMASAKVVAEAAQAAARNESDKLDKGKVAGASADILDAAEKYGKFDEKSSTGQYLDKAEKYLNDYESSHSTGAGGPPPPTSQAEPASQPEPAAKKDDEESGGGLGGYAKMAQGFLK
With B9 the binding [2] was “binds”.

B10: SnRK2.1 (enzyme, UniProt P43292 1-353)
chain: MDKYDVVKDLGAGNFGVARLLRHKDTKELVAMKYIERGRKIDENVAREIINHRSLKHPNIIRFKEVILTPTHLAIVMEYASGGELFDRICTAGRFSEAEARYFFQQLICGVDYCHSLQICHRDLKLENTLLDGSPAPLLKICDFGYSKSSILHSRPKSTVGTPAYIAPEVLSRREYDGKHADVWSCGVTLYVMLVGAYPFEDPNDPKNFRKTIQRIMAVQYKIPDYVHISQECKHLLSRIFVTNSAKRITLKEIKNHPWYLKNLPKELLESAQAAYYKRDTSFSLQSVEDIMKIVGEARNPAPSTSAVKSSGSGADEEEEEDVEAEVEEEEDDEDEYEKHVKEAQSCQESDKA
In the case of B10, the binding [3] is reported as “binds”.

B11: glycine rich protein 7 (protein, UniProt Q03250 1-176)
chain: MASGDVEYRCFVGGLAWATDDRALETAFAQYGDVIDSKIINDRETGRSRGFGFVTFKDEKAMKDAIEGMNGQDLDGRSITVNEAQSRGSGGGGGHRGGGGGGYRSGGGGGYSGGGGSYGGGGGRREGGGGYSGGGGGYSSRGGGGGSYGGGRREGGGGYGGGEGGGYGGSGGGGGW
B11 was tested, and the binding [2] was “binds”.

B12: DNAJ homologue 3 (protein, UniProt Q94AW8 1-420)
chain: MFGRGPSKKSDNTKFYEILGVPKSASPEDLKKAYKKAAIKNHPDKGGDPEKFKELAQAYEVLSDPEKREIYDQYGEDALKEGMGGGGGGHDPFDIFSSFFGGGPFGGNTSRQRRQRRGEDVVHPLKVSLEDVYLGTMKKLSLSRNALCSKCNGKGSKSGASLKCGGCQGSGMKVSIRQLGPGMIQQMQHACNECKGTGETINDRDRCPQCKGDKVIPEKKVLEVNVEKGMQHSQKITFEGQADEAPDTVTGDIVFVLQQKEHPKFKRKGEDLFVEHTLSLTEALCGFQFVLTHLDGRSLLIKSNPGEVVKPDSYKAISDEGMPIYQRPFMKGKLYIHFTVEFPDSLSPDQTKALEAVLPKPSTAQLSDMEIDECEETTLHDVNIEDEMRRKAQAQREAYDDDDEDDDHPGGAQRVQCAQQ
With B12 the binding [2] was “binds”.

B13: PYK10-binding protein 1 (protein, UniProt O04314 1-298)
chain: MAQKVEAQGGKGANLWDDGSTHDAVTKIQLAAGIDGIQYVQFDYVKNGQPEQAPLRGTKGRVLPADPFVINHPDEHLVSVEGWYSPEGIIQGIKFISNKKTSDVIGSDEGTHFTLQVKDKKIIGFHGSAGGNLNSLGAYFAPLTTTTPLTPAKQLTAFGSDDGTVWDDGAYVGVKKVYVGQAQDGISAVKFVYDKSPEEVTGEEHGKSTLLGFEEFVLDYPSEYITAVDGTYDKIFGSDGSVITMLRFKTNKQTSPPFGLEAGTVFELKEEGHKIVGFHGRADVLLHKIGVHVRPLSN
For B13, the binding [2] was “binds”.

B14: RNA-directed DNA methylation 4 (protein, UniProt Q8GYP3 1-346)
chain: MDGVGESSTQNEVEEKPVIVRVKRKVGQSLLDAFWLEINERPLKRPTLDFSKLSISDSGERGPSVAEDVKPKKVLVRHLETVTDSETTADIIHSFFESDHNEKSCSKGKFEERKIAFKKDNRKEQRLTKSVQKQQIASENARFEQIWRSRKGNKEGIHEKCHFFDVIRVDTEERRDNAQEFTSLEDQKMLASFLPLLRECIPTAAEEIEADIQSSHTEEYVYDYYAVNEEMDISEDSSKNQFPLVIVEDEEEFCDGSDESDYDSEDSNAEDHPKTDYPEEEEEEEEEDDDDDDDDESEEEKSEASDESDDEETSKRHVRSVLGDDEFDDYAEDVYGYSESDEEFES
B14 was tested, and the binding [2] was “binds”.

B15: rubisco activase (protein, UniProt P10896 59-474)
chain: AVKEDKQTDGDRWRGLAYDTSDDQQDITRGKGMVDSVFQAPMGTGTHHAVLSSYEYVSQGLRQYNLDNMMDGFYIAPAFMDKLVVHITKNFLTLPNIKVPLILGIWGGKGQGKSFQCELVMAKMGINPIMMSAGELESGNAGEPAKLIRQRYREAADLIKKGKMCCLFINDLDAGAGRMGGTTQYTVNNQMVNATLMNIADNPTNVQLPGMYNKEENARVPIICTGNDFSTLYAPLIRDGRMEKFYWAPTREDRIGVCKGIFRTDKIKDEDIVTLVDQFPGQSIDFFGALRARVYDDEVRKFVESLGVEKIGKRLVNSREGPPVFEQPEMTYEKLMEYGNMLVMEQENVKRVQLAETYLSQAALGDANADAIGRGTFYGKGAQQVNLPVPEGCTDPVAENFDPTARSDDGTCVYNF
In the case of B15, the binding [2] is reported as “no binding”.
